Assay results: the supplement of paper PMC10849652
This is one part of the list.

By UniProt entry, the sequences of proteins in these tests, tags left out. Where a name states a change or a piece, a line headed by the entry shows the natural chain unless it says otherwise.
UniProt P05067, whole entry, looked up: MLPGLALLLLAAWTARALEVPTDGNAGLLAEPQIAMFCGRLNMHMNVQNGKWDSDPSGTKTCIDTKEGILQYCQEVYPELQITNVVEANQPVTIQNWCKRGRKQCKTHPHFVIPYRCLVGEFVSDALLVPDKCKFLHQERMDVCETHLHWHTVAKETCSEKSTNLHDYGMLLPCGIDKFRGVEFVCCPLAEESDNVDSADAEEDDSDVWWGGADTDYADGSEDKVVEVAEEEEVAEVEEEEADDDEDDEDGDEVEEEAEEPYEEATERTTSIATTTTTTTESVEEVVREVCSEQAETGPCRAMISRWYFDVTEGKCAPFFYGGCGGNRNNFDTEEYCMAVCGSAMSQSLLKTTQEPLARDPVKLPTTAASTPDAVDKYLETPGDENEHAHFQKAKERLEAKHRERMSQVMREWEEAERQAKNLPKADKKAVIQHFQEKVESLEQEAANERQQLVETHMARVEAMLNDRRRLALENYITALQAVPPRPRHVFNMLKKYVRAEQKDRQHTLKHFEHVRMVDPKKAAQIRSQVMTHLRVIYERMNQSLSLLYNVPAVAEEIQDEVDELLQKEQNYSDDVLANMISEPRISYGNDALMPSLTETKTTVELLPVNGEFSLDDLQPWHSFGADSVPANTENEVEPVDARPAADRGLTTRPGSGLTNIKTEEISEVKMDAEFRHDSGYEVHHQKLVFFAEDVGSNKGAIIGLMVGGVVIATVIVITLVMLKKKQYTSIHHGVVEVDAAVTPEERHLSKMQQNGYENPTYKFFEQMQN
UniProt P05090: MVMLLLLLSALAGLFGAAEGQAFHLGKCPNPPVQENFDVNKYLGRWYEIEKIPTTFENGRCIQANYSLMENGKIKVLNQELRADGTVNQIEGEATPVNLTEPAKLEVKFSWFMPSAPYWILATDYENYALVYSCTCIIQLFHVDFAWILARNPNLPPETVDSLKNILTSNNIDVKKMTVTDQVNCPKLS
UniProt Q8IW19: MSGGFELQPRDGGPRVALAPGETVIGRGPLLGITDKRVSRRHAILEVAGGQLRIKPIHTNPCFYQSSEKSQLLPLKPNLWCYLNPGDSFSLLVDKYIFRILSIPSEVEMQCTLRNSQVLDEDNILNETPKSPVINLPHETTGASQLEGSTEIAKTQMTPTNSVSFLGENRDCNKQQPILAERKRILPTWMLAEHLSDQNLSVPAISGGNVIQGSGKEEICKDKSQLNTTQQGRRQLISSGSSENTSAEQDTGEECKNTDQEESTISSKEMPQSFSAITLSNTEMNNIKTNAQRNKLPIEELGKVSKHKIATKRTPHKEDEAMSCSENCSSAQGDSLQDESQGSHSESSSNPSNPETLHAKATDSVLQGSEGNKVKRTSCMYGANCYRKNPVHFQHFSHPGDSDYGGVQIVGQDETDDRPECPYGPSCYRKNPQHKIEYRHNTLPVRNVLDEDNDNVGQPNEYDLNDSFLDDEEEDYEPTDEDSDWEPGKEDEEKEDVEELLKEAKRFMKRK
UniProt P25054, whole entry, looked up: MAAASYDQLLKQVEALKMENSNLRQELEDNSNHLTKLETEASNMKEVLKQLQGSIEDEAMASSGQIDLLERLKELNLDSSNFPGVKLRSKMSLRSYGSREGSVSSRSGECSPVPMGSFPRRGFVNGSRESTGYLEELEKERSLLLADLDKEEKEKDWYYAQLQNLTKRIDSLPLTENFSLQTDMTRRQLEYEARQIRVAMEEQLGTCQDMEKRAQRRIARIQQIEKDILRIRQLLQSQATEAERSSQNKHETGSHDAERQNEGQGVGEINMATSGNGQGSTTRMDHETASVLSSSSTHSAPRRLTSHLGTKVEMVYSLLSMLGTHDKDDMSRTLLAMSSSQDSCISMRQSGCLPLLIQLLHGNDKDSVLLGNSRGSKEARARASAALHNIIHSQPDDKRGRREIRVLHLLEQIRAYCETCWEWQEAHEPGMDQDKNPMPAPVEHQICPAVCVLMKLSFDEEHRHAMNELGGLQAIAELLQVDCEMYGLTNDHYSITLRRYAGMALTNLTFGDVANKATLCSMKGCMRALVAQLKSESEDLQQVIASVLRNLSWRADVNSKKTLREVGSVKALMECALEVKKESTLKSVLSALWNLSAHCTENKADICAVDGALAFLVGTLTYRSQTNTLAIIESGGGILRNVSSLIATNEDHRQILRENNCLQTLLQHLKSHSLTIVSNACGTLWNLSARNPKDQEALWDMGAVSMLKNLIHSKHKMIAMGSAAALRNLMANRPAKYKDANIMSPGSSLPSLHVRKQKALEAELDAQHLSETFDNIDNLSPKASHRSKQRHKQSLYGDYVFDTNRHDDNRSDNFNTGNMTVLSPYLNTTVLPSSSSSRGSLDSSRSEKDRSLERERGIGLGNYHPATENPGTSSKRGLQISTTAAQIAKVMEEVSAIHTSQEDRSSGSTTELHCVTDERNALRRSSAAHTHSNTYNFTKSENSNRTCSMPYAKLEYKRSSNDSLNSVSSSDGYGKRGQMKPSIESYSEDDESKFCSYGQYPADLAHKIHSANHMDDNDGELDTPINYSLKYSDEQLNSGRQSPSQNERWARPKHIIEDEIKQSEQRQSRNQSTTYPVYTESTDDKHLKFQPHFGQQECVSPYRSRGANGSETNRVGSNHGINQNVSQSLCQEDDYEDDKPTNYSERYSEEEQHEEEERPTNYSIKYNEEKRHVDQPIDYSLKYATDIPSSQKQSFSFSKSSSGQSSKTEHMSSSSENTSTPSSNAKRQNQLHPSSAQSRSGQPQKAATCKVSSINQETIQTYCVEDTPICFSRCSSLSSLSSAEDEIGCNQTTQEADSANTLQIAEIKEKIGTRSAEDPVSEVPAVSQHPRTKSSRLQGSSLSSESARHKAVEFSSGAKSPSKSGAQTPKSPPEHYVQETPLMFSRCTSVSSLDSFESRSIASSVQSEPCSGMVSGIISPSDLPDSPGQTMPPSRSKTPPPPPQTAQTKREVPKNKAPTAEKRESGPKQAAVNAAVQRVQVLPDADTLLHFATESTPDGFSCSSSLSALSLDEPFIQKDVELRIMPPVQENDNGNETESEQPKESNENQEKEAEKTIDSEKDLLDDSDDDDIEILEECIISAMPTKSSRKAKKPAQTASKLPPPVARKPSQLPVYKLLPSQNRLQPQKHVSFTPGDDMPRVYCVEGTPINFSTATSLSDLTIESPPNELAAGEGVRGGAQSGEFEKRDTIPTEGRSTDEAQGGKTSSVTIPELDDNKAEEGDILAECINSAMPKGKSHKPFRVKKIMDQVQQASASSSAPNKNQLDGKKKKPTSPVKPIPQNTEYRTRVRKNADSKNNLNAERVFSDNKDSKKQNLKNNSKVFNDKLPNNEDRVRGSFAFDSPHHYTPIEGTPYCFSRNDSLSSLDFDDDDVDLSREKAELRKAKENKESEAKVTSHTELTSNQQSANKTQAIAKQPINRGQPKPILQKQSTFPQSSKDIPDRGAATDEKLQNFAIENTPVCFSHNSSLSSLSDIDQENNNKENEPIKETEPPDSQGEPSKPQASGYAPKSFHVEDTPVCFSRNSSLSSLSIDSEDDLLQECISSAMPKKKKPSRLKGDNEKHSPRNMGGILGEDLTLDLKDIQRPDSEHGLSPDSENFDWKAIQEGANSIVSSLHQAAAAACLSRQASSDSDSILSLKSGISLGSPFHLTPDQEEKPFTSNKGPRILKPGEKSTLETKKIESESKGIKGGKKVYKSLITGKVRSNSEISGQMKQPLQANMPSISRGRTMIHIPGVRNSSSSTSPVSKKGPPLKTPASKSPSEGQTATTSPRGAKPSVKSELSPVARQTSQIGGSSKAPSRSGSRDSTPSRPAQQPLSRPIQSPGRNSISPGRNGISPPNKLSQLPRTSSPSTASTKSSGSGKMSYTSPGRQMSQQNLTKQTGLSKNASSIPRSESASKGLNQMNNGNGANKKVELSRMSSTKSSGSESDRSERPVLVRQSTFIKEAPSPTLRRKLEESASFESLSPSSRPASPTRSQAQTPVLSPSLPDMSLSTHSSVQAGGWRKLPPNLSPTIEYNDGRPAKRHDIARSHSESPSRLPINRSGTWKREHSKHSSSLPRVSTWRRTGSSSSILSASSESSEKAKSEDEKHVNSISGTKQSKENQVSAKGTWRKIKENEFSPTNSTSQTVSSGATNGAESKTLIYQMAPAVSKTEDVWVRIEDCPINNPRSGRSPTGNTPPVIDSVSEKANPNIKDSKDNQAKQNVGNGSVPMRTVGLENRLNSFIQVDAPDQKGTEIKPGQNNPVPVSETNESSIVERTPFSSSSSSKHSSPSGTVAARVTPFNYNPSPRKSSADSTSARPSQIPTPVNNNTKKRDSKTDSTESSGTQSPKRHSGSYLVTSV
UniProt O14791: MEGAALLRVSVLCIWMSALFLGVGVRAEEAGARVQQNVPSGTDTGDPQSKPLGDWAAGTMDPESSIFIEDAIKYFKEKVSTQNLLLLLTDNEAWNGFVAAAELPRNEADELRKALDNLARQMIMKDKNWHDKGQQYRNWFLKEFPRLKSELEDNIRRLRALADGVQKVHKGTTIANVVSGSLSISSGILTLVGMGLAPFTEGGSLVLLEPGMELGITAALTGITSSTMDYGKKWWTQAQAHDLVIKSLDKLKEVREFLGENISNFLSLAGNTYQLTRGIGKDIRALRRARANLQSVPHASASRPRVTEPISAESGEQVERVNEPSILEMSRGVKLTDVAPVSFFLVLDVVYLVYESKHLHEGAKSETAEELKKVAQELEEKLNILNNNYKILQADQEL
UniProt P53677: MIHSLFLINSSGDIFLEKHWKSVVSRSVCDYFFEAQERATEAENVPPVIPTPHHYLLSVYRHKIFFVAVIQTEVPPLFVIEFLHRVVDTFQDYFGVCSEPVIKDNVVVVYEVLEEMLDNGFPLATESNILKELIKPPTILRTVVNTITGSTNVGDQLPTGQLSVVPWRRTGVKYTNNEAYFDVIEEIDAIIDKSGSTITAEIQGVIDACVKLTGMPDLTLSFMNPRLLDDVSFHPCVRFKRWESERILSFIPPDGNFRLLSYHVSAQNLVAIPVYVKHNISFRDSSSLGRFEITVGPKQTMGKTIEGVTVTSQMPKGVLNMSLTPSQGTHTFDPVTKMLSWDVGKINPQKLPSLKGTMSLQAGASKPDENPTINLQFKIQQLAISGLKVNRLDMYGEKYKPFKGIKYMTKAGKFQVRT
UniProt Q9NQW6: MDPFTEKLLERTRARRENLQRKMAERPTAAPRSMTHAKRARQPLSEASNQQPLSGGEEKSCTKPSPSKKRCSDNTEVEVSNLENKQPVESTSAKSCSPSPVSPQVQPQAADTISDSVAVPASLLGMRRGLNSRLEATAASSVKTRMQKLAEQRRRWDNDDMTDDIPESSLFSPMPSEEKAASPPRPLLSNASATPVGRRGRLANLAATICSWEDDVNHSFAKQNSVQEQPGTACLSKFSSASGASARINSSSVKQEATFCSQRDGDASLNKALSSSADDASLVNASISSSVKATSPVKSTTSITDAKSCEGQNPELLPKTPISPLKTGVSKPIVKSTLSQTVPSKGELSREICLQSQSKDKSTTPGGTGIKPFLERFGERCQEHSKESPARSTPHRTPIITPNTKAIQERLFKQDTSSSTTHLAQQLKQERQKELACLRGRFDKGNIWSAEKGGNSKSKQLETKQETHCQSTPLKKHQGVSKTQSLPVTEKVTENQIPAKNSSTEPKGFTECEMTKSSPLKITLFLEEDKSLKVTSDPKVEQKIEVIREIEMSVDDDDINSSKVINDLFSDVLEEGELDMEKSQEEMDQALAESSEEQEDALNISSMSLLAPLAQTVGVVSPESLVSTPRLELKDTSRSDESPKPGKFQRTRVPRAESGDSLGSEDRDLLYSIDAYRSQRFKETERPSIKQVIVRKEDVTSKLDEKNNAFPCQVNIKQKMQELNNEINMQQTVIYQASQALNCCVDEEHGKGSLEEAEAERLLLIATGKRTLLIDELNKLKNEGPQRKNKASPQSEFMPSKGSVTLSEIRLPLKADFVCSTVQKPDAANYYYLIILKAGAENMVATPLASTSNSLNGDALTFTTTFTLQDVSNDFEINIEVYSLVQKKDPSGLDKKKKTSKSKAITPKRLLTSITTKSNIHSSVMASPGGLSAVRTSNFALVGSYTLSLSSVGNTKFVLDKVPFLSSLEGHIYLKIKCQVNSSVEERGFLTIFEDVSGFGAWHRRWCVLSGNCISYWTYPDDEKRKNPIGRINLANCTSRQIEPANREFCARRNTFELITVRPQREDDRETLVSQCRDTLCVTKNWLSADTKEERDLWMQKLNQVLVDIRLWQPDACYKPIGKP
UniProt P02655: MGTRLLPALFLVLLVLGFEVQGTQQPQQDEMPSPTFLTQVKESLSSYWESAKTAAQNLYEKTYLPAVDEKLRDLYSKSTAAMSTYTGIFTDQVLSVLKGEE
UniProt Q9NUS5: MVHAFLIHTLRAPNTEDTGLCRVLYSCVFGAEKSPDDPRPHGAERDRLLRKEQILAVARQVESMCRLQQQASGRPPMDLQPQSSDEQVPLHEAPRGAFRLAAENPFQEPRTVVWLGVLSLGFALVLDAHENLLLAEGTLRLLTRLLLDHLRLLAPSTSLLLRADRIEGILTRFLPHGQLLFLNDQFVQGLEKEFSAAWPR

Tests used:
Assay in all cases: log2 fold change, soluble protein after heating vs DMSO (PISA); higher = thermal stabilisation; K562 cells, 10 uM, 30 min; active = over 0.2 and 3.5 SD of the protein, either way, in both replicates (recomputed)
saracatinib = compound: CN1CCN(CCOc2cc(OC3CCOCC3)c3c(Nc4c(Cl)ccc5c4OCO5)ncnc3c2)CC1 [saracatinib]
Method in brief: (§1)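 Soluble protein was quantified by TMTpro 16plex LC-MS/MS after channel sums were equalised. It was obtained as the supernatant after 21,000xg for 90 min from pooled aliquots of K562 cells (2×10^6 cells/mL, 10 μM compound, 30 min) heated for 3 min across 48°C-58°C and extracted in PBS with 0.5% NP-40 at 4°C. Thermal stability values are relative to control samples and come from duplicates. They are given as log2 fold changes.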

[1] = compound: CNC(=O)C1=CC=CC=C1NC2=NC(=NC=C2Cl)NC3=C(C=C(C=C3)N4CCOCC4)OC
Method in brief: as §1

[2] = compound: CNc1nc(-c2ccc3c(N)n[nH]c3c2)cc(N2C[C@@H](C(=O)NC3CCCCC3)CC[C@H]2C)n1
Method in brief: as §1

[3] = compound: COC1=CC=C(C=C1)CN2C=CC3=C2C=C(C=C3)C(=O)NO
Method in brief: as §1

idasanutlin = compound: COc1cc(C(=O)O)ccc1NC(=O)[C@@H]1N[C@@H](CC(C)(C)C)[C@](C#N)(c2ccc(Cl)cc2F)[C@H]1c1cccc(Cl)c1F [idasanutlin]
Method in brief: as §1

[4] = compound: COc1cc2nc(-c3cc(F)ccc3O)nc(N[C@@H]3CNC[C@H]3C(C)(C)O)c2cc1OC
Method in brief: as §1

lapatinib = compound: CS(=O)(=O)CCNCc1ccc(-c2ccc3ncnc(Nc4ccc(OCc5cccc(F)c5)c(Cl)c4)c3c2)o1 [lapatinib]
Method in brief: as §1

sotrastaurin = compound: CN1CCN(c2nc(C3=C(c4c[nH]c5ccccc45)C(=O)NC3=O)c3ccccc3n2)CC1 [sotrastaurin]
Method in brief: as §1

Tubastatin A = compound: CN1CCc2c(c3ccccc3n2Cc2ccc(C(=O)NO)cc2)C1 [Tubastatin A]
Method in brief: as §1

defactinib = compound: CNC(=O)c1ccc(Nc2ncc(C(F)(F)F)c(NCc3nccnc3N(C)S(C)(=O)=O)n2)cc1 [defactinib]
Method in brief: as §1

rucaparib = compound: CNCc1ccc(-c2[nH]c3cc(F)cc4c3c2CCNC4=O)cc1 [rucaparib]
Method in brief: as §1

encorafenib = compound: COC(=O)N[C@@H](C)CNc1nccc(-c2cn(C(C)C)nc2-c2cc(Cl)cc(NS(C)(=O)=O)c2F)n1 [encorafenib]
Method in brief: as §1

[5] = compound: COC(=O)[C@H](CCSC)NC(=O)C1=C(C=C(C=C1)NC[C@H](CS)N)C2=CC=CC=C2
Method in brief: as §1

filanesib = compound: CON(C)C(=O)N1N=C(c2cc(F)ccc2F)S[C@@]1(CCCN)c1ccccc1 [filanesib]
Method in brief: as §1

pictilisib = compound: CS(=O)(=O)N1CCN(Cc2cc3nc(-c4cccc5[nH]ncc45)nc(N4CCOCC4)c3s2)CC1 [pictilisib]
Method in brief: as §1

alisertib = compound: COc1cc(Nc2ncc3c(n2)-c2ccc(Cl)cc2C(c2c(F)cccc2OC)=NC3)ccc1C(=O)O [alisertib]
Method in brief: as §1

gefitinib = compound: COc1cc2ncnc(Nc3ccc(F)c(Cl)c3)c2cc1OCCCN1CCOCC1 [gefitinib]
Method in brief: as §1

[6] = compound: COc1cccc2cc(-c3nc([C@H]4CC[C@H](C(=O)O)CC4)n4ncnc(N)c34)[nH]c12
Method in brief: as §1

alvocidib = compound: CN1CC[C@H](c2c(O)cc(O)c3c(=O)cc(-c4ccccc4Cl)oc23)[C@H](O)C1 [alvocidib]
Method in brief: as §1

zotarolimus = compound: CO[C@H]1C[C@@H]2CC[C@@H](C)[C@@](O)(O2)C(=O)C(=O)N2CCCC[C@H]2C(=O)O[C@H]([C@H](C)C[C@@H]2CC[C@H](n3cnnn3)[C@H](OC)C2)CC(=O)[C@H](C)/C=C(\C)[C@@H](O)[C@@H](OC)C(=O)[C@H](C)C[C@H](C)/C=C/C=C/C=C/1C [zotarolimus]
Method in brief: as §1

Measured: log2 fold change

AREG (UniProt P15514)
inactive: saracatinib 0.09 | [1] -0.087 | [2] -0.035 | [3] 0.178 | idasanutlin -0.153 | [4] -0.094 | lapatinib -0.064

ARHGAP22 isoform 2 (UniProt Q7Z5H3)
inactive: sotrastaurin -0.132 | Tubastatin A 0.057 | defactinib -0.017 | rucaparib 0.063 | encorafenib -0.036 | [5] 0.045 | filanesib -0.135 | [4] 0.116 | lapatinib -0.162 | pictilisib 0.095

ANGEL1 (UniProt Q9UNK9)
inactive: Tubastatin A 0.089 | defactinib -0.076 | [5] 0.095 | [3] 0.024

APP (UniProt P05067)
inactive: sotrastaurin 0.027 | Tubastatin A -0.048 | [1] 0.088 | rucaparib -0.328 | encorafenib 0.64 | filanesib 0.147 | alisertib 0.028 | [4] -0.01 | gefitinib 0.07 | [6] -0.03 | lapatinib 0.166

API5 isoform 1 (UniProt Q9BZZ5)
inactive: saracatinib -0.067 | alvocidib -0.101 | Tubastatin A 0.07 | defactinib -0.2 | [2] 0.311 | [5] -0.262 | zotarolimus -0.01 | idasanutlin 0.15 | [4] 0.018 | gefitinib 0.203 | lapatinib 0.324

ARFIP1 isoform 2 (UniProt P53367)
inactive: saracatinib 0.026 | sotrastaurin -0.041 | [1] -0.268 | [2] 0.279 | [3] -0.225 | filanesib -0.082 | alisertib -0.17 | [4] -0.013 | gefitinib -0.067 | [6] -0.068 | lapatinib 0.05 | pictilisib -0.154

ANKS1A (UniProt Q92625)
inactive: sotrastaurin 0.028 | alvocidib -0.034 | Tubastatin A 0.063 | rucaparib 0.449 | encorafenib 0.103 | [3] -0.047 | filanesib -0.042 | zotarolimus 0.08 | idasanutlin -0.012

ANKH (UniProt Q9HCJ1)
inactive: saracatinib -0.254 | [1] 0 | rucaparib -0.32 | [2] -0.041 | encorafenib -0.05 | [3] 0.225 | idasanutlin 0.26 | [4] 0.317 | gefitinib 0.111 | lapatinib -0.377 | pictilisib 0.332

ANKFY1 isoform 4 (UniProt Q9P2R3)
inactive: sotrastaurin -0.121 | alvocidib 0.107 | Tubastatin A 0.11 | [1] 0.04 | defactinib 0.045 | rucaparib 0.215 | encorafenib 0.322 | [5] 0.014 | [3] -0.099 | filanesib -0.183 | zotarolimus 0.027 | idasanutlin -0.026 | alisertib -0.019 | [4] -0.123 | gefitinib 0.05 | [6] -0.075 | lapatinib -0.022 | pictilisib -0.185

ANKRD11 (UniProt Q6UB99)
inactive: sotrastaurin 0.114 | [1] 0.037 | defactinib -0.013 | [5] 0.052 | filanesib 0.04 | alisertib 0.093 | gefitinib 0.162 | [6] 0.35

AP1G2 (UniProt O75843)
inactive: saracatinib 0.064 | alvocidib 0.028 | [1] -0.008 | [2] 0.164 | zotarolimus -0.436 | [4] -0.146 | lapatinib -0.02

3 consecutive entries already listed, quoted:
ANKS1A (UniProt Q92625)
inactive: sotrastaurin 0.028 | alvocidib -0.034 | Tubastatin A 0.063 | rucaparib 0.449 | encorafenib 0.103 | [3] -0.047 | filanesib -0.042 | zotarolimus 0.08 | idasanutlin -0.012

ANKH (UniProt Q9HCJ1)
inactive: saracatinib -0.254 | [1] 0 | rucaparib -0.32 | [2] -0.041 | encorafenib -0.05 | [3] 0.225 | idasanutlin 0.26 | [4] 0.317 | gefitinib 0.111 | lapatinib -0.377 | pictilisib 0.332

ANKFY1 isoform 4 (UniProt Q9P2R3)
inactive: sotrastaurin -0.121 | alvocidib 0.107 | Tubastatin A 0.11 | [1] 0.04 | defactinib 0.045 | rucaparib 0.215 | encorafenib 0.322 | [5] 0.014 | [3] -0.099 | filanesib -0.183 | zotarolimus 0.027 | idasanutlin -0.026 | alisertib -0.019 | [4] -0.123 | gefitinib 0.05 | [6] -0.075 | lapatinib -0.022 | pictilisib -0.185

(continued)

ANKLE2 (UniProt Q86XL3)
inactive: defactinib 0.089 | [5] -0.075 | [3] 0.026 | [4] -0.067 | lapatinib 0.072

ANKRD16 (UniProt Q6P6B7)
inactive: sotrastaurin -0.291 | [1] 0.042 | defactinib -0.094 | [5] 0.016 | filanesib -0.216 | alisertib -0.223 | [4] -0.01 | [6] -0.016 | lapatinib -0.024

APOD (UniProt P05090)
inactive: sotrastaurin -0.227 | alvocidib -0.146 | Tubastatin A 0.22 | [1] 0.732 | defactinib 0.052 | rucaparib -0.045 | encorafenib -0.008 | [5] 0.25 | filanesib -0.092 | zotarolimus -0.083 | idasanutlin 0.365 | alisertib 0.181 | [4] 0.141 | gefitinib 0.513 | [6] 0.013 | lapatinib -0.164

APLF (UniProt Q8IW19)
inactive: alvocidib 0.304 | zotarolimus -0.16 | idasanutlin -0.058 | [4] 0.26 | lapatinib -0.107

ARHGEF10 (UniProt O15013)
inactive: defactinib -0.051 | [5] 0.16

APC (UniProt P25054)
inactive: saracatinib 0.099 | alvocidib 0.099 | Tubastatin A 0.135 | [1] -0.046 | defactinib -0.128 | rucaparib 0.057 | [2] 0.373 | encorafenib -0.002 | [5] -0.029 | [3] 0.21 | zotarolimus -0.116 | idasanutlin 0.393

ARHGAP5 (UniProt Q13017)
inactive: alvocidib -0.052 | Tubastatin A -0.043 | [1] -0.112 | rucaparib 0.05 | encorafenib 0.013 | zotarolimus -0.401

ANKIB1 (UniProt Q9P2G1)
inactive: gefitinib 0.132

AP1B1 isoform 3 (UniProt Q10567)
inactive: saracatinib -0.051 | alvocidib -0.085 | Tubastatin A 0.079 | defactinib -0.234 | rucaparib -0.141 | [2] -0.04 | encorafenib 0.058 | [5] 0.058 | [3] 0.017 | zotarolimus -0.259 | idasanutlin -0.219 | alisertib -0.082 | [4] 0.065 | gefitinib 0.061 | [6] 0.057 | lapatinib 0.051 | pictilisib -0.148

APPBP2 (UniProt Q92624)
inactive: saracatinib 0.042 | alvocidib 0.163 | Tubastatin A 0.203 | [2] 0.374 | [3] -0.156 | zotarolimus -0.008 | [4] -0.216 | gefitinib 0.004 | lapatinib 0.112 | pictilisib 0.047

AP2S1 (UniProt M0QZ21)
inactive: Tubastatin A 0.335

ARID4B (UniProt Q4LE39)
inactive: Tubastatin A 0.103 | alisertib -0.101 | [6] -0.167

ARHGAP35 (UniProt Q9NRY4)
inactive: saracatinib -0.403 | alvocidib 0.002 | Tubastatin A 0.051 | [1] 0.007 | defactinib 0.013 | rucaparib 0.118 | [2] -0.038 | encorafenib 0.212 | [5] 0.047 | [3] 0.026 | zotarolimus 0.025 | idasanutlin 0.065 | alisertib -0.016 | [4] 0.143 | [6] -0.08 | lapatinib 0.04 | pictilisib -0.085

APOL1 isoform 2 (UniProt O14791)
inactive: alvocidib 0.022 | Tubastatin A 0.332 | rucaparib -0.298 | encorafenib -0.33 | zotarolimus -0.067 | gefitinib 0.077

AREL1 (UniProt O15033)
inactive: idasanutlin 0.016

AP3M2 (UniProt P53677)
inactive: alvocidib 0.05 | [1] -0.044 | [3] -0.12 | zotarolimus 0.03 | alisertib -0.057 | [6] -0.02

APH1B (UniProt Q8WW43)
inactive: sotrastaurin 0.032 | filanesib -0.061 | idasanutlin -0.058 | pictilisib 0.095

ANKRD13C (UniProt Q8N6S4)
inactive: alvocidib -0.077 | Tubastatin A 0.054 | defactinib -0.197 | rucaparib 0.158 | encorafenib -0.081 | [5] -0.042 | zotarolimus 0.175 | idasanutlin 0.139

ANKRD52 (UniProt Q8NB46)
inactive: saracatinib 0.767 | alvocidib 0.083 | Tubastatin A 0.04 | [1] 0.079 | defactinib -0.218 | rucaparib 0.152 | [2] -0.227 | encorafenib -0.082 | [5] -0.413 | [3] 0.027 | zotarolimus -0.143 | idasanutlin 0.099 | alisertib -0.128 | gefitinib 0.165 | [6] -0.199

ANLN (UniProt Q9NQW6)
inactive: saracatinib -0.125 | sotrastaurin -0.092 | [1] 0.02 | defactinib -0.421 | rucaparib 0.004 | [2] -0.101 | encorafenib -0.006 | [5] 0.063 | [3] 0.014 | filanesib 0.041 | alisertib 0.132 | [4] 0.18 | gefitinib 0.089 | [6] 0.117 | lapatinib 0.13 | pictilisib 0.138

APOBEC3F (UniProt Q8IUX4)
inactive: saracatinib -0.006 | alvocidib 0.188 | rucaparib 0.133 | [2] -0.057 | encorafenib -0.069 | [3] -0.001 | zotarolimus -0.041 | idasanutlin 0.173 | [4] -0.141 | lapatinib 0.056

APOC2 (UniProt P02655)
inactive: saracatinib -0.066 | alvocidib -0.18 | defactinib -0.051 | [2] 0.002 | [5] -0.013 | [3] -0.051 | zotarolimus -0.038 | alisertib -0.115 | gefitinib 0.188 | [6] 0.057 | pictilisib 0.31

ARHGAP25 isoform 4 (UniProt P42331)
inactive: saracatinib 0.249 | Tubastatin A 0.079 | [1] -0.023 | defactinib 0.02 | rucaparib 0.168 | [2] 0.131 | encorafenib 0.212 | [5] -0.212 | zotarolimus -0.077 | idasanutlin -0.123 | alisertib -0.068 | gefitinib 0.08 | [6] -0.11 | pictilisib 0.085

APOBEC3B (UniProt Q9UH17)
inactive: alvocidib 0.014 | [3] -0.118 | zotarolimus 0.182 | gefitinib -0.051

APOA4 (UniProt P06727)
inactive: Tubastatin A -0.05 | defactinib -0.12 | [5] -0.033 | idasanutlin 0.124 | alisertib 0.017 | gefitinib -0.052 | [6] 0.032

ANKRD26 (UniProt Q9UPS8)
inactive: sotrastaurin 0.003 | alvocidib -0.042 | Tubastatin A -0.071 | defactinib 0.18 | [5] -0.035 | filanesib -0.142 | zotarolimus -0.006 | idasanutlin -0.085 | alisertib -0.035 | [4] -0.009 | gefitinib -0.033 | [6] 0.094 | lapatinib -0.002 | pictilisib 0.014

AP5S1 (UniProt Q9NUS5)
inactive: [1] 0.039 | alisertib 0.009 | gefitinib 0 | [6] 0.064

ANKRD27 (UniProt Q96NW4)
inactive: [3] 0.358
